The test system of the data set is GST-SlUPA-like (Solanum lycopersicum). The data set is described as follows: EMSA. As to conditions: Purified GST-SlUPA-like with biotin probes, polyacrylamide gel, LightShift EMSA Optimization & Control Kit (Thermo); pH and temperature not stated; recombinant protein; protein details: N-terminal GST (pGEX-4T-1).

The exact form of at least one protein or probe is not confirmed. Negatives hold for the conditions tested.

Consider “AAGTTAAAAGCCAAAGTTATCAACTGACGTCAATTTAAAGGTCATGTTTA (double strand) [SlGID2 promoter motif 2 probe (Bio-P/Cold-P)]”, for which the binding result is reported as “binds”.

On to “ATTAACAGGCAGTAACAATTCAGTTGAAAGATTTTTGAAGAATATTTTAG (double strand) [SlGID2 promoter motif 1 probe (Bio-P/Cold-P)]”, for which the binding result is listed as “no binding”.
